Source: the supplement of paper PMC10331698
± gives the standard deviation of the averaged measurements. Most entries show no effect beyond the scatter of the controls.

Tests used:
Experiment in all cases: level (log10 ratio to DMSO vehicle control); higher = higher biomarker level / cell amount than vehicle control
[1] = compound: CCOC(=O)CC(=O)C(F)(F)C(F)(F)F [Ethyl pentafluoropropionyl acetate]; conditions: 2200 nM; in DMSO
Procedure: (§1)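 BioMAP Diversity Plus panel of 12 human primary cell co-culture systems (3C, 4H, LPS, SAg, BT, BF4T, BE3C, CASM3C, HDF3CGF, KF3CT, MyoF, Mphg). Compounds were added 1 h before stimulation and left for 24 h (MyoF 48 h; BT 72 h for soluble read-outs or 6 d for IgG). Biomarkers were read by ELISA, cytotoxicity by SRB, PBMC viability and proliferation by Alamar Blue. Each well value was divided by the mean of 8 DMSO control wells on the same plate and log10 transformed; duplicate blinded samples were tested at 4 concentrations.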

[2] = compound: O=C(O)C(F)(F)OC(F)(F)C(F)(F)OC(F)(F)C(F)(F)OC(F)(F)C(F)(F)C(F)(F)C(F)(F)F [Perfluoro-3,6,9-trioxatridecanoic acid]; conditions: 2200 nM; in DMSO
Procedure: as §1

[3] = compound: O=C(O)C(F)(F)OC(F)(F)C(F)(F)OC(F)(F)F [Perfluoro-3,6-dioxaheptanoic acid]; conditions: 2200 nM; in DMSO
Procedure: as §1

[4] = compound: O=C(O)C(F)(F)C(F)(F)C(F)(F)C(F)(F)C(F)(F)C(F)(F)C(F)(F)F [Perfluorooctanoic acid]; conditions: 2200 nM; in DMSO
Procedure: as §1

[5] = compound: OCC(F)(F)OC(F)(F)C(F)(F)OC(F)(F)C(F)(F)OC(F)(F)CO [1H,1H,11H,11H-Perfluorotetraethylene glycol]; conditions: 2200 nM; in DMSO
Procedure: as §1

[6] = compound: OCC(F)(F)C(F)(F)C(F)(F)C(F)(F)C(F)(F)C(F)(F)C(F)(F)C(F)(F)CO [1H,1H,10H,10H-Perfluorodecane-1,10-diol]; conditions: 2200 nM; in DMSO
Procedure: as §1

[7] = compound: C=CC(=O)OCC(F)(F)C(F)(F)C(F)(F)C(F)(F)C(F)(F)C(F)(F)C(F)(F)C(F)F [1H,1H,9H-Perfluorononyl acrylate]; conditions: 2200 nM; in DMSO
Procedure: as §1

[8] = compound: O=C(O)C(F)(F)C(F)(F)C(F)(F)C(F)(F)C(F)(F)C(F)(F)C(F)(F)C(F)(F)C(F)(F)F [Perfluorodecanoic acid]; conditions: in DMSO
Procedure: as §1

[9] = compound: O=C(CC(=O)C(F)(F)C(F)(F)C(F)(F)F)c1cccs1 [(Perfluorobutyryl)-2-thenoylmethane]; conditions: 2200 nM; in DMSO
Procedure: as §1

[10] = compound: O=C(O)CCC(F)(C(F)(F)F)C(F)(F)F [4,4-bis(Trifluoromethyl)-4-fluoropropanoic acid]; conditions: 2200 nM; in DMSO
Procedure: as §1

[11] = compound: N=C(N)C(F)(F)C(F)(F)C(F)(F)C(F)(F)C(F)(F)C(F)(F)C(F)(F)F [Perfluorooctanamidine]; conditions: in DMSO
Procedure: as §1

[12] = compound: O=C(O)C(F)(F)C(F)(F)C(F)(F)C(F)(F)C(F)(F)C(F)(F)C(F)(F)F [Ammonium perfluorooctanoate]; conditions: 2200 nM; in DMSO
Procedure: as §1

[13] = compound: O=C(O)C(F)(F)C(F)(F)C(F)(F)C(F)(F)C(F)(F)C(F)(F)C(F)(F)C(F)(F)F [Perfluorononanoic acid]; conditions: 2200 nM; in DMSO
Procedure: as §1

[14] = compound: FC(F)(F)C(F)(F)C(F)(F)C(F)(F)C(F)(F)C(F)(F)C(F)(F)C(F)(F)CCS [2-(Perfluorooctyl)ethanthiol]; conditions: in DMSO
Procedure: as §1

Test System	level (log10) [1]	level (log10) [2]	level (log10) [3]	level (log10) [4]	level (log10) [5]	level (log10) [6]	level (log10) [7]	level (log10) ([8]; 2200 nM)	level (log10) ([8]; 6700 nM)	level (log10) ([8]; 20000 nM)	level (log10) [9]	level (log10) [10]	level (log10) ([11]; 2200 nM)	level (log10) ([11]; 6700 nM)	level (log10) ([11]; 20000 nM)	level (log10) ([11]; 60000 nM)	level (log10) [12]	level (log10) [13]	level (log10) ([14]; 740 nM)	level (log10) ([14]; 2200 nM)
BE3C:MMP-9	0.0005 ± 0.042	-0.0105 ± 0.03	-0.0295 ± 0.0092	-0.006 ± 0.021	0.0085 ± 0.012	0.0155 ± 0.013	0.014 ± 0.016	-0.0155 ± 0.033	0.008 ± 0.014	-0.458 ± 0.0028	-0.06 ± 0.0014	0.0025 ± 0.028	0.005 ± 0.059	-0.0115 ± 0.005	-0.015 ± 0.023	-0.001	-0.0185 ± 0.0035	-0.036 ± 0.023	-0.038 ± 0.02	-0.008 ± 0.017
CASM3C:SRB	0.0025 ± 0.012	-0.0055 ± 0.00071	-0.002 ± 0.017	0.0135 ± 0.016	-0.001 ± 0.014	0.0035 ± 0.0078	-0.0005 ± 0.0078	-0.0045 ± 0.0092	0.0055 ± 0.0064	0.0055 ± 0.0064	-0.002 ± 0.0085	0.0075 ± 0.011	0.0045 ± 0.012	-0.0015 ± 0.011	-0.0105 ± 0.00071	-0.018	-0.004 ± 0.0014	0.0045 ± 0.018	0.0045 ± 0.015	0.0055 ± 0.0064
HDF3CGF:TIMP-2	-0.047 ± 0.05	-0.019 ± 0.013	-0.038 ± 0.016	-0.0215 ± 0.025	-0.01 ± 0.081	-0.0055 ± 0.035	-0.0225 ± 0.15	-0.0055 ± 0.012	-0.006 ± 0.028	-0.349 ± 0.17	-0.069 ± 0.035	-0.0395 ± 0.064	-0.008 ± 0.011	-0.008 ± 0.027	-0.012 ± 0.031	-0.018	0.005 ± 0.0085	-0.041 ± 0.095	-0.029 ± 0.13	-0.023 ± 0.096
3C:CD87/uPAR	0.006 ± 0.016	0.019 ± 0.0085	-0.005 ± 0.016	0.01 ± 0.025	0.0165 ± 0.033	-0.0225 ± 0.036	0.004 ± 0.0057	0.006 ± 0.035	0.011 ± 0.02	-0.01 ± 0.02	-0.0395 ± 0.013	0.057 ± 0.023	0.0445 ± 0.021	0.0265 ± 0.059	0.0135 ± 0.028	0.042	-0.0075 ± 0.00071	0.004 ± 0.0071	-0.0145 ± 0.029	-0.0255 ± 0.064
SAg:CD38	0.002 ± 0.044	0.0025 ± 0.022	-0.012 ± 0.031	0.002 ± 0.017	0.0265 ± 0.049	-0.025	-0.006 ± 0.0071	-0.0165 ± 0.012	-0.009 ± 0.0014	-0.017 ± 0.0057	-0.007 ± 0.035	-0.003 ± 0.028	-0.006 ± 0.017	0.009 ± 0.017	0.001 ± 0.013	-0.074	-0.022 ± 0.013	0.019 ± 0.034	-0.0235 ± 0.028	-0.041 ± 0.037
HDF3CGF:EGFR	0.0145 ± 0.035	0.0055 ± 0.054	0.028 ± 0.033	0.0065 ± 0.033	0.003 ± 0.035	-0.021 ± 0.0099	0.0015 ± 0.042	0.0325 ± 0.033	-0.075 ± 0.054	-0.195 ± 0.026	0.0025 ± 0.018	-0.0255 ± 0.086	-0.003 ± 0.018	-0.017 ± 0.02	0.01 ± 0.011	-0.013	0.0055 ± 0.018	-0.04 ± 0.0014	-0.0425 ± 0.056	-0.048 ± 0.0057
4H:CD87/uPAR	-0.0045 ± 0.052	0.0265 ± 0.04	0.0115 ± 0.047	-0.0555 ± 0.029	-0.01 ± 0.1	-0.019 ± 0.033	-0.018 ± 0.023	-0.0085 ± 0.015	0.0115 ± 0.021	0.0135 ± 0.0092	0.024 ± 0.048	0.0325 ± 0.012	0.077 ± 0.02	0.0455 ± 0.097	0.055 ± 0.028	0.146	0.011 ± 0.05	-0.009 ± 0.027	-0.0185 ± 0.025	0.012 ± 0.0057
HDF3CGF:MMP-1	0.039 ± 0.031	-0.009 ± 0.0042	0.006 ± 0.0042	-0.0245 ± 0.021	0.0235 ± 0.0021	-0.005 ± 0.0014	0.004 ± 0.0028	-0.0105 ± 0.03	-0.041 ± 0.0028	-0.174 ± 0.08	-0.0075 ± 0.0035	-0.001 ± 0.0099	0.003 ± 0.0057	-0.008 ± 0.0099	0.012 ± 0.0085	-0.008	0.015 ± 0.017	-0.0205 ± 0.039	0.015 ± 0.016	0.0075 ± 0.011
HDF3CGF:Collagen I	0.0035 ± 0.011	0.034 ± 0.12	0.018 ± 0.017	-0.0075 ± 0.033	0.027 ± 0.079	0.012 ± 0.014	-0.0225 ± 0.07	0.046 ± 0.024	-0.02 ± 0.025	-0.0095 ± 0.04	0.0095 ± 0.088	0.0135 ± 0.074	0.0345 ± 0.042	-0.015 ± 0.0085	-0.025 ± 0.03	-0.021	0.0455 ± 0.029	-0.016 ± 0.062	0.0175 ± 0.012	-0.027 ± 0.03
SAg:SRB	0.004 ± 0.0085	0.0045 ± 0.0078	-0.0205 ± 0.011	-0.0145 ± 0.0078	0.0065 ± 0.0021	0.004 ± 0.024	-0.0025 ± 0.0021	0.0095 ± 0.0021	-0.0035 ± 0.012	-0.008 ± 0.013	-0.004 ± 0.0057	0.003 ± 0.011	-0.015 ± 0.014	-0.0025 ± 0.0078	0.0025 ± 0.018	-0.084	-0.0045 ± 0.013	-0.004 ± 0.0099	0.003 ± 0.023	0.0065 ± 0.005
MyoF:CXCL8/IL-8	-0.0045 ± 0.018	0.016 ± 0.048	-0.0305 ± 0.097	0.0115 ± 0.00071	-0.0105 ± 0.0021	-0.0005 ± 0.039	-0.0345 ± 0.011	0.0285 ± 0.069	0.0205 ± 0.037	0.0085 ± 0.016	-0.019 ± 0.0071	0.011 ± 0.0099	-0.0095 ± 0.076	-0.003 ± 0.041	0.03 ± 0.0099	0.043	0.0105 ± 0.012	-0.0155 ± 0.076	-0.0035 ± 0.022	-0.0215 ± 0.018
CASM3C:M-CSF	-0.0065 ± 0.019	0.015 ± 0.03	-0.011 ± 0.0042	0.0045 ± 0.036	0.0085 ± 0.064	0.016 ± 0.042	0.029 ± 0.035	0.0315 ± 0.0064	0.0145 ± 0.0078	0.0345 ± 0.019	0.025 ± 0.031	-0.0245 ± 0.042	0.03 ± 0.034	-0.0095 ± 0.021	-0.025 ± 0.028	0.034	0.0265 ± 0.013	-0.058 ± 0.0014	0.0195 ± 0.07	-0.0055 ± 0.04

Exported with bars between the fields: entries from further up
Test System | level (log10) [1] | level (log10) [2] | level (log10) [3] | level (log10) [4] | level (log10) [5] | level (log10) [6] | level (log10) [7] | level (log10) ([8]; 2200 nM) | level (log10) ([8]; 6700 nM) | level (log10) ([8]; 20000 nM) | level (log10) [9] | level (log10) [10] | level (log10) ([11]; 2200 nM) | level (log10) ([11]; 6700 nM) | level (log10) ([11]; 20000 nM) | level (log10) ([11]; 60000 nM) | level (log10) [12] | level (log10) [13] | level (log10) ([14]; 740 nM) | level (log10) ([14]; 2200 nM)
HDF3CGF:TIMP-2 | -0.047 ± 0.05 | -0.019 ± 0.013 | -0.038 ± 0.016 | -0.0215 ± 0.025 | -0.01 ± 0.081 | -0.0055 ± 0.035 | -0.0225 ± 0.15 | -0.0055 ± 0.012 | -0.006 ± 0.028 | -0.349 ± 0.17 | -0.069 ± 0.035 | -0.0395 ± 0.064 | -0.008 ± 0.011 | -0.008 ± 0.027 | -0.012 ± 0.031 | -0.018 | 0.005 ± 0.0085 | -0.041 ± 0.095 | -0.029 ± 0.13 | -0.023 ± 0.096
HDF3CGF:Collagen I | 0.0035 ± 0.011 | 0.034 ± 0.12 | 0.018 ± 0.017 | -0.0075 ± 0.033 | 0.027 ± 0.079 | 0.012 ± 0.014 | -0.0225 ± 0.07 | 0.046 ± 0.024 | -0.02 ± 0.025 | -0.0095 ± 0.04 | 0.0095 ± 0.088 | 0.0135 ± 0.074 | 0.0345 ± 0.042 | -0.015 ± 0.0085 | -0.025 ± 0.03 | -0.021 | 0.0455 ± 0.029 | -0.016 ± 0.062 | 0.0175 ± 0.012 | -0.027 ± 0.03
